Measured values as given in the supplement of paper PMC7661543.
The effect of the compound repeats well; differences between the knockouts mostly do not.

Test system: BT-20
Test: relative cell number vs DMSO control (72 h) (% of DMSO); higher = less growth inhibition (more cells)
Experimental: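 QMAP-Seq: a pool of 5 breast cancer cell lines (ZR-75-1, SKBR3, HCC-38, MDA-MB-231, BT-20), each carrying 12 doxycycline-inducible Cas9 sgRNA perturbations (11 knockouts plus non-targeting sgNT), was treated with compounds for 72 h at four 10-fold doses (10 nM-10 uM or 1 nM-1 uM range). Barcodes were amplified and sequenced, and cell number was interpolated from 293T spike-in standard curves. The result is expressed as % of the median of DMSO wells. Two biological replicates.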

CCOC(=O)c1ccc(N2NC(=O)C(=Cc3ccc([N+](=O)[O-])o3)C2=O)cc1 [PYR41]
Conditions	relative cell number
sgRNA knockout: sgATF3, 10 nM	91.9
sgRNA knockout: sgATF3, 100 nM	94.5
sgRNA knockout: sgATF3, 1000 nM	117
sgRNA knockout: sgATF3, 10000 nM	89.4
sgRNA knockout: sgATF4, 10 nM	105
sgRNA knockout: sgATF4, 100 nM	86.3
sgRNA knockout: sgATF4, 1000 nM	110
sgRNA knockout: sgATF4, 10000 nM	95.9
sgRNA knockout: sgATF6, 10 nM	96.5
sgRNA knockout: sgATF6, 100 nM	98.7
sgRNA knockout: sgATF6, 1000 nM	123
sgRNA knockout: sgATF6, 10000 nM	101.5
sgRNA knockout: sgATG7, 10 nM	99.6
sgRNA knockout: sgATG7, 100 nM	95.2
sgRNA knockout: sgATG7, 1000 nM	122.3
sgRNA knockout: sgATG7, 10000 nM	99.6
sgRNA knockout: sgERN1, 10 nM	94.5
sgRNA knockout: sgERN1, 100 nM	101
sgRNA knockout: sgERN1, 1000 nM	116
sgRNA knockout: sgERN1, 10000 nM	102
sgRNA knockout: sgHSF1, 10 nM	101
sgRNA knockout: sgHSF1, 100 nM	89.1
sgRNA knockout: sgHSF1, 1000 nM	109
sgRNA knockout: sgHSF1, 10000 nM	102
sgRNA knockout: sgHSF2, 10 nM	98.4
sgRNA knockout: sgHSF2, 100 nM	99.8
sgRNA knockout: sgHSF2, 1000 nM	123
sgRNA knockout: sgHSF2, 10000 nM	106
sgRNA knockout: sgKEAP1, 10 nM	101
sgRNA knockout: sgKEAP1, 100 nM	95.9
sgRNA knockout: sgKEAP1, 1000 nM	101
sgRNA knockout: sgKEAP1, 10000 nM	94.9
sgRNA knockout: sgNFE2L2, 10 nM	97.4
sgRNA knockout: sgNFE2L2, 100 nM	84.7
sgRNA knockout: sgNFE2L2, 1000 nM	123
sgRNA knockout: sgNFE2L2, 10000 nM	113
sgRNA knockout: sgSLC35F2, 10 nM	88.5
sgRNA knockout: sgSLC35F2, 100 nM	87.5
sgRNA knockout: sgSLC35F2, 1000 nM	106
sgRNA knockout: sgSLC35F2, 10000 nM	106
sgRNA knockout: sgXBP1, 10 nM	96.1
sgRNA knockout: sgXBP1, 100 nM	95.12
sgRNA knockout: sgXBP1, 1000 nM	117
sgRNA knockout: sgXBP1, 10000 nM	112

O=C(CCc1ccc(O)cc1)c1c(O)cc(O)cc1O [Phloretin]
Conditions	relative cell number
sgRNA knockout: sgATF3, 10 nM	107
sgRNA knockout: sgATF3, 100 nM	114
sgRNA knockout: sgATF3, 1000 nM	111
sgRNA knockout: sgATF3, 10000 nM	109
sgRNA knockout: sgATF4, 10 nM	117
sgRNA knockout: sgATF4, 100 nM	114
sgRNA knockout: sgATF4, 1000 nM	106
sgRNA knockout: sgATF4, 10000 nM	130
sgRNA knockout: sgATF6, 10 nM	91.7
sgRNA knockout: sgATF6, 100 nM	101
sgRNA knockout: sgATF6, 1000 nM	103.8
sgRNA knockout: sgATF6, 10000 nM	113
sgRNA knockout: sgATG7, 10 nM	103
sgRNA knockout: sgATG7, 100 nM	101
sgRNA knockout: sgATG7, 1000 nM	100
sgRNA knockout: sgATG7, 10000 nM	114
sgRNA knockout: sgERN1, 10 nM	114
sgRNA knockout: sgERN1, 100 nM	107.3
sgRNA knockout: sgERN1, 1000 nM	95.9
sgRNA knockout: sgERN1, 10000 nM	109
sgRNA knockout: sgHSF1, 10 nM	111
sgRNA knockout: sgHSF1, 100 nM	102
sgRNA knockout: sgHSF1, 1000 nM	102
sgRNA knockout: sgHSF1, 10000 nM	105
sgRNA knockout: sgHSF2, 10 nM	97.3
sgRNA knockout: sgHSF2, 100 nM	103
sgRNA knockout: sgHSF2, 1000 nM	114
sgRNA knockout: sgHSF2, 10000 nM	117
sgRNA knockout: sgKEAP1, 10 nM	113
sgRNA knockout: sgKEAP1, 100 nM	94.2
sgRNA knockout: sgKEAP1, 1000 nM	96
sgRNA knockout: sgKEAP1, 10000 nM	109
sgRNA knockout: sgNFE2L2, 10 nM	104
sgRNA knockout: sgNFE2L2, 100 nM	113
sgRNA knockout: sgNFE2L2, 1000 nM	102
sgRNA knockout: sgNFE2L2, 10000 nM	119
sgRNA knockout: sgSLC35F2, 10 nM	107
sgRNA knockout: sgSLC35F2, 100 nM	101
sgRNA knockout: sgSLC35F2, 1000 nM	103
sgRNA knockout: sgSLC35F2, 10000 nM	109
sgRNA knockout: sgXBP1, 10 nM	96.8
sgRNA knockout: sgXBP1, 100 nM	101
sgRNA knockout: sgXBP1, 1000 nM	110
sgRNA knockout: sgXBP1, 10000 nM	124
